Primary screen of a compound library

Protein sequences, listed by entry. Tags and fused reporters are not part of them. Residues count along the entry.
UniProt P9WPC5, whole entry: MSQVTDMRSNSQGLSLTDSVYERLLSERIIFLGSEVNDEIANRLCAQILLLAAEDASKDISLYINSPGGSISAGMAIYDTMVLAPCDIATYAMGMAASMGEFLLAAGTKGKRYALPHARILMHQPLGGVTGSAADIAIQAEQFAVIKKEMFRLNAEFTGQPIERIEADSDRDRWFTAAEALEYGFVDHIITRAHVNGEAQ
UniProt P9WPC3, whole entry partner: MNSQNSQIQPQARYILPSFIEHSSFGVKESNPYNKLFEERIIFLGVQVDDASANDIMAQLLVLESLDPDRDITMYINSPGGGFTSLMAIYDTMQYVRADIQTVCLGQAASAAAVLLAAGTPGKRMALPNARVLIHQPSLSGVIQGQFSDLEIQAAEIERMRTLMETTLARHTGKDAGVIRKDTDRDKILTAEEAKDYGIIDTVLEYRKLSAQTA
UniProt Q4DA54, 1-478: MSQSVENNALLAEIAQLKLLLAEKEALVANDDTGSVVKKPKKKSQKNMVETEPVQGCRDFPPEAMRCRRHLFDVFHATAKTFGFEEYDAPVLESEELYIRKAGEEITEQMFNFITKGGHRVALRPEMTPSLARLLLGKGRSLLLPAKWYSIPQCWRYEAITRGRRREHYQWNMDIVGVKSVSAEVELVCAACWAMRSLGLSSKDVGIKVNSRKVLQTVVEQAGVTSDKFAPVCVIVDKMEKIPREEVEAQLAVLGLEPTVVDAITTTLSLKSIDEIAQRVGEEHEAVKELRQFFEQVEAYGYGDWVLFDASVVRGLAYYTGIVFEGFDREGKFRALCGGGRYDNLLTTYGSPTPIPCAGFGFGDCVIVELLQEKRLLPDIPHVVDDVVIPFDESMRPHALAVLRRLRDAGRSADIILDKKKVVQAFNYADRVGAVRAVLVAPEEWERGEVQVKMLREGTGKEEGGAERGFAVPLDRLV
UniProt Q8IDJ8, 1-583: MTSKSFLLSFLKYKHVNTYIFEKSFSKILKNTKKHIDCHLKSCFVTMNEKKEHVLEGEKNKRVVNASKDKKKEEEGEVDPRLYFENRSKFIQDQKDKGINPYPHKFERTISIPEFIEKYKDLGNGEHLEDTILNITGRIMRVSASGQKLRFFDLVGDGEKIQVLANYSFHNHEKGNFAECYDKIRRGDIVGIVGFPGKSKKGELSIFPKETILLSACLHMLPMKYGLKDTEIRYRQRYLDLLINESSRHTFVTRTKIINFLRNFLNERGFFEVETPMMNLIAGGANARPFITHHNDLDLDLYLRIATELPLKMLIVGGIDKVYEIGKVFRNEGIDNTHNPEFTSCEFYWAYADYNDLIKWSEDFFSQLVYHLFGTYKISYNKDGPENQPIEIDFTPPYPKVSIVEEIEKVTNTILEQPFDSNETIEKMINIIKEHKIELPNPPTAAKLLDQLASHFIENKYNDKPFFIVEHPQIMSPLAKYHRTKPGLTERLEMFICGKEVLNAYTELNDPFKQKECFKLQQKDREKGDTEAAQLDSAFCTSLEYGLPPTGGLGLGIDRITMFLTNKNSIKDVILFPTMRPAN
UniProt I6X8D2, whole entry: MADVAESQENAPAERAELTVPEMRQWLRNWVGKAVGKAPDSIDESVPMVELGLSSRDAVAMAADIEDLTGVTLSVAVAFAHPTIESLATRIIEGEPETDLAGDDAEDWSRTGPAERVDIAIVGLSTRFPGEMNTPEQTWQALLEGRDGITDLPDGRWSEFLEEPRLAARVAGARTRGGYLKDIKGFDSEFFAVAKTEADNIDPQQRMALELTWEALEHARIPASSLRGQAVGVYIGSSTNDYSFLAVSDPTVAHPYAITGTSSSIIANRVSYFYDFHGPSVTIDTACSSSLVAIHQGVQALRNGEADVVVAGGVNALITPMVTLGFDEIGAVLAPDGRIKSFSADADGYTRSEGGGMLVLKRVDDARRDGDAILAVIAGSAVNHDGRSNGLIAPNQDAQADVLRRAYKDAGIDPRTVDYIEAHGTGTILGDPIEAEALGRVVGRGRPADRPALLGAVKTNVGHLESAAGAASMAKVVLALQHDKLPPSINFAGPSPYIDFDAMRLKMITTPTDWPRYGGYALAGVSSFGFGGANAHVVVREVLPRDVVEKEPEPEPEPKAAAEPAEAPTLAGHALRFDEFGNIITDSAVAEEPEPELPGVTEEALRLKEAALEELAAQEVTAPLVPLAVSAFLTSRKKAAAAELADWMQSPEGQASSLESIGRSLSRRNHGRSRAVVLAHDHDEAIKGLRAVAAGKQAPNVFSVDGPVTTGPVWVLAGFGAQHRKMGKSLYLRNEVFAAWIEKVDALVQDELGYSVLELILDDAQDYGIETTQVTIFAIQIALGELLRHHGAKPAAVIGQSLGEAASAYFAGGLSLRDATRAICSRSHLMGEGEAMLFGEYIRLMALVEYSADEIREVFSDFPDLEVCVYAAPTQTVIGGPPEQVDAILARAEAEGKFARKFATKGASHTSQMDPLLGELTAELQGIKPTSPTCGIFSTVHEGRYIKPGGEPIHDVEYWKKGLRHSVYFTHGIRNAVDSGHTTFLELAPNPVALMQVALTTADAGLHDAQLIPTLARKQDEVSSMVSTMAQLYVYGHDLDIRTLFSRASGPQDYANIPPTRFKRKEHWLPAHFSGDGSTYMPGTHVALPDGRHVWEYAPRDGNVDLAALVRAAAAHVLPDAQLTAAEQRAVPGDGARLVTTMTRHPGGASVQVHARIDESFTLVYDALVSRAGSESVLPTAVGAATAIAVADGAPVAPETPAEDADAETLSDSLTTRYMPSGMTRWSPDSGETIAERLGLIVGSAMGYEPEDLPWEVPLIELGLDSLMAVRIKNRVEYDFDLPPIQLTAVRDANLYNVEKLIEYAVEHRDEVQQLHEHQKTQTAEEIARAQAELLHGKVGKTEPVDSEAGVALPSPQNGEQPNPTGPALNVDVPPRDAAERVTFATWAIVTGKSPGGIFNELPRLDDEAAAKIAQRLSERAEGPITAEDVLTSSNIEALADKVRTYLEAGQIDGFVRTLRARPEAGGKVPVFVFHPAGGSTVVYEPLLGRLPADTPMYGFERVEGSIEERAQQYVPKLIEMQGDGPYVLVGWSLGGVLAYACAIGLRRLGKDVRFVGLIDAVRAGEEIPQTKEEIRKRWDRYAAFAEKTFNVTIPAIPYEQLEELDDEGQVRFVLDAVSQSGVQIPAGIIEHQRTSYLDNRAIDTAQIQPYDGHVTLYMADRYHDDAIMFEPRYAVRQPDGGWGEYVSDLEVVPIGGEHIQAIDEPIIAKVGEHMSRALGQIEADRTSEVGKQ

The values are deposited in ChEMBL (CHEMBL3988442, “University of Dundee, Small-Polar-MMV Screening Library” (2021)).

The filed quantity is “Percent Effect” (%).
How 0% and 100% were set is not recorded. Most values in the screen are low, and negative values occur.
This is an unselected part of the compounds tested.

ClpP1P2: 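ClpP1P2, Mycobacterium tuberculosis (UniProt P9WPC5 and UniProt P9WPC3). Protease assay of ClpP1P2, read by the AMC dye that it sets free. Tested at 50 µM. Higher reads as stronger inhibition, judged from the few compounds that gave an IC50. Most other retested compounds had strongly negative values. Size under these conditions: about 69,000 compounds, about 10 of them at 50% or above in at least one test.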
TcHisRS: 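Enzyme assay of histidyl-tRNA synthetase; the read-out is not stated. Target: Histidine-tRNA ligase, Trypanosoma cruzi CL Brener (UniProt Q4DA54). Compounds at 30 µM. Higher reads as stronger inhibition (inferred: compounds with an IC50 in retests scored well above the rest). Of about 69,000 compounds tested this way, about 31 (0.045%) reached 50% or more in at least one test.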
PfKRS1: 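Enzyme assay of the cytosolic lysyl-tRNA synthetase in 384-well plates, read by luminescence. Target: Lysine-tRNA ligase, Plasmodium falciparum 3D7 (UniProt Q8IDJ8). Tested at 30 µM. Higher reads as stronger inhibition, judged from the few compounds that gave an IC50. About 69,000 compounds were tested under these conditions; 0.071% (about 49) showed 50% or more at least once.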
Pks13 thioesterase: 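Enzyme assay of the thioesterase domain of polyketide synthase 13; the read-out is not stated. Target: Polyketide synthase Pks13, Mycobacterium tuberculosis (UniProt I6X8D2). Compounds at 30 µM. The record gives no direction; the compounds picked for IC50 retests had high values, so higher reads as stronger inhibition. Size under these conditions: about 67,000 compounds, about 300 of them at 50% or above in at least one test.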

O=C(NCCO)c1coc(CN2CCN(c3ccccc3F)CC2)n1 gave ClpP1P2: -2.744%; TcHisRS: 9.195%; PfKRS1: 9.26%; Pks13 thioesterase: -28.35%.
CCCc1nnc(NCCc2noc(C3CCC3)n2)o1 gave ClpP1P2: 1.023%; TcHisRS: -12.87%; PfKRS1: -0.3661%; Pks13 thioesterase: -9.146%.
Cc1cccc2[nH]c(C3CCN(C(=O)c4cccnn4)CC3)nc12 gave ClpP1P2: 8.355%; TcHisRS: 0.5025%; PfKRS1: -2.267%; Pks13 thioesterase: 13.98%.
CSCC(C)(O)CNC(=O)c1cc(F)ccc1Br (configuration not stated) gave ClpP1P2: -4.496%; TcHisRS: 0%; PfKRS1: 3.85%; Pks13 thioesterase: -27.97%.
CC(C)(C)NS(=O)(=O)c1ccccc1CNCc1cccc(O)c1 gave ClpP1P2: 2.183%; TcHisRS: 5.195%; PfKRS1: -0.08436%; Pks13 thioesterase: -7.5%.
CCS(=O)(=O)Nc1ccn(Cc2cccc(F)c2)n1 gave ClpP1P2: -23.2%; TcHisRS: -1.339%; PfKRS1: -1.714%; Pks13 thioesterase: -6.82%.
O=C(CC1Cn2ncnc2NC1=O)Nc1cccc(C(F)(F)F)c1 (configuration not stated) gave ClpP1P2: -12.26%; TcHisRS: 4.142%; PfKRS1: 2.334%; Pks13 thioesterase: -14.79%.
CCN(CC)S(=O)(=O)N1C[C@@H]2CC[C@H](C1)N(Cc1cscn1)C2=O gave ClpP1P2: -3.655%; TcHisRS: 1.961%; PfKRS1: 7.119%; Pks13 thioesterase: -28.47%.
Cc1cc(C(=O)NCc2cccs2)c2c(C3CCCN3)noc2n1 (configuration not stated) gave ClpP1P2: -0.347%; TcHisRS: 2.959%; PfKRS1: 4.715%; Pks13 thioesterase: -9.209%.
CN1CC(C(=O)NC2(c3ccc(Cl)cc3)CCOCC2)CC1=O (configuration not stated) gave ClpP1P2: -10.19%; TcHisRS: 6.211%; PfKRS1: 1.865%; Pks13 thioesterase: 6.019%.
CCc1nc(CN2CCCC(NCCn3cncn3)C2)no1 (configuration not stated) gave ClpP1P2: 9.943%; TcHisRS: 4.255%; PfKRS1: 3.989%; Pks13 thioesterase: -14.11%.
CC(C)c1nc(O)c2nnn(C[C@H]3CCCN(Cc4cccs4)C3)c2n1 gave ClpP1P2: -4.381%; TcHisRS: 0%; PfKRS1: 2.717%; Pks13 thioesterase: -6.897%.
CC(=O)N[C@@H]1CN(Cc2ccccc2-n2cccn2)C[C@H]1C(C)C gave ClpP1P2: -2.448%; TcHisRS: 7.065%; PfKRS1: 6.595%; Pks13 thioesterase: -8.562%.
Cn1nnc2c1C(COCc1ccccn1)CN(C(=O)c1ccsc1)C2 (configuration not stated) gave ClpP1P2: -3.153%; TcHisRS: 3.483%; PfKRS1: 5.498%.
N#Cc1ccc(F)c(CNc2ccc(F)cc2OCCO)c1 gave ClpP1P2: -13.31%; TcHisRS: 4.972%; PfKRS1: 0.8427%; Pks13 thioesterase: -0.9231%.
CN(Cc1nc(Cc2ccccc2F)no1)CC1Cc2ccccc2O1 (configuration not stated) gave ClpP1P2: -12.89%; TcHisRS: 4.372%; PfKRS1: -4.166%; Pks13 thioesterase: 10.42%.
O=c1[nH]nc2c(S(=O)(=O)N3CCCC3)cccn12 gave ClpP1P2: -3.157%; TcHisRS: 12%; PfKRS1: 1.881%; Pks13 thioesterase: -4.95%.
Cn1cc(Br)c(C(=O)NCCCn2cc(Br)cn2)n1 gave ClpP1P2: -0.9974%; TcHisRS: 3.509%; PfKRS1: 4.948%; Pks13 thioesterase: 27.16%.
Cn1cnc2cc(NC(=O)c3n[nH]c4c3CCC4)ccc21 gave ClpP1P2: -4.133%; TcHisRS: 6.186%; PfKRS1: 2.683%; Pks13 thioesterase: -2.004%.
O=C(c1cc2c(s1)CCC2)N1CCN(c2cnccn2)CC1 gave ClpP1P2: 4.368%; TcHisRS: 16.16%; PfKRS1: 3.52%; Pks13 thioesterase: 0.8443%.
O=C(Nc1ccnc(OC2CCOC2)c1)c1cc(F)ccc1F (configuration not stated) gave ClpP1P2: -6.895%; TcHisRS: 5.691%; PfKRS1: -1.325%; Pks13 thioesterase: -15.69%.